In US10004828B2, “Self-assembled Fmoc-ff hydrogels” (Romat at Tel-Aviv University Ltd., priority 2005, dated 2018):

Test: Fluorescent molecule encapsulation and release from the hydrogel

Row | Molecule | size of particles retained within the hydrogel cavities [kDA] | release of encapsulated fluorescent molecule from the gel into covering water (Fmoc-diphenylalanine hydrogel formed with 50 μM fluorescent molecule, 1.5 ml water on top)
1 | O=C(N[C@@H](Cc1ccccc1)C(=O)N[C@@H](Cc1ccccc1)C(=O)O)OCC1c2ccccc2-c2ccccc21 [Fmoc-Phe-Phe, Fmoc-diphenylalanine] (Fmoc-Phe-Phe-OH) | ≥ 5 | –
2 | Insulin-FITC: fluorescent Insulin-FITC, molecular mass of 5733 Da, encapsulated in the gel [reference compound] | – | retained in the gel

Where a SMILES comes first, the peptide text is derived from it. The star is where a group is joined. Fmoc = O=C(OCC1c2ccccc2-c2ccccc21)*
